PubChem BioAssay AID504764 | Drosophila RNAi Screening Center | 2011

Screen: 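Knock-downs that raise or lower a Notch target reporter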 (primary screen)
Cell system: Drosophila Kc167 cells
Reagent: long dsRNA against Drosophila genes
Time to read-out: about 5 days (4 days dsRNA, then 24 h after transfection)
Challenge: transfection of constitutively active membrane-tethered Notch lacking the extracellular domain, read 24 h later
Measured: 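Light from a Notch-responsive E(spl)m3 luciferase reporter under active Notch, with control-promoter and no-Notch reporter wells to normalise; raw counts from paired wells a and b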
Reading the numbers: induced reporter light, run 1, well a and induced reporter light, run 1, well b: higher = more light from the Notch target reporter with active Notch; control promoter light, run 1, well a and control promoter light, run 1, well b: higher = more light from the viral control promoter (cell number, transfection, viability); uninduced reporter light, run 1, well a: higher = more light from the Notch target reporter without active Notch
Rule for the call: 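Hit if the duplicate-averaged log2 ratio of induced to control-promoter light gives a plate-wise z beyond ±2, or induced to uninduced beyond ±1.8; weak-control or discordant-duplicate wells dropped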
Meaning of the calls: active = modifier hit (raised or lowered Notch signal); inactive = not a hit
The deposit covers about 22,000 reagents; this is a random part of those with a known target gene and a result. Over the whole deposit, 403 (1.9%) were called active. 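Unnormalised raw counts per well; ratio z-scores behind the hit calls and whether each hit raises or lowers signal are not deposited.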 A number with no mark means an inactive call. The numbers tell different reagents against one gene apart. Not given: the amount of reagent.

Gene | reagent | induced reporter light, run 1, well a | induced reporter light, run 1, well b | control promoter light, run 1, well a | control promoter light, run 1, well b | uninduced reporter light, run 1, well a
CG9522 (GeneID 32413) | 1 | 86380 | 65640 | 71320 | 52005 | 10835
Vm34Ca (GeneID 34758) | 1 | 1.54e5 | 1.49e5 | 1.45e5 | 1.68e5 | 12442
dock (GeneID 33262) | 1 | 90930 | 90420 | 83370 | 94920 | 6530
NTPase (GeneID 33495) | 1 | 1.60e5 | 1.90e5 | 1.81e5 | 1.52e5 | 19080
Or47b (GeneID 36212) | 1 | 94090 | 1.06e5 | 1.12e5 | 1.20e5 | 9460
narya (GeneID 32932) | 1 | 1.26e5 | 1.45e5 | 1.01e5 | 69785 | 9410
CG10918 (GeneID 33123) | 1 | 89380 | 83460 | 82435 | 1.14e5 | 10032
mthl9 (GeneID 38056) | 1 | 88425 | 1.41e5 | 2.00e5 | 1.29e5 | 7755
SmydA-9 (GeneID 31859) | 1 | 73885 | 77850 | 1.18e5 | 1.46e5 | 5425
heix (GeneID 34961) | 1 | 1.59e5 | 1.90e5 | 1.51e5 | 1.48e5 | 14860
betaNACtes1 (GeneID 32360) | 1 | 60505 | 65820 | 74650 | 63225 | 9260
CG9592 (GeneID 39585) | 1 | 1.47e5 | 1.62e5 | 2.45e5 | 2.50e5 | 8175
CG1523 (GeneID 43400) | 1 | 1.60e5 | 1.54e5 | 1.96e5 | 2.33e5 | 10220
CG33017 (GeneID 36811) | 1 | 1.42e5 | 1.12e5 | 1.60e5 | 1.19e5 | 12145
CG33017 (GeneID 36811) | 2 | 97110 | 83100 | 93975 | 96260 | 6685
CG34129 (GeneID 43181) | 1 | 1.40e5 | 1.65e5 | 1.70e5 | 1.82e5 | 14240
Nipped-B (GeneID 3355136) | 1 | 78870 | 54955 | 89480 | 56210 | 4920
CG31544 (retired record) (GeneID 318792) | 1 | 1.40e5 | 1.60e5 | 1.27e5 | 96955 | 11255
CG31205 (GeneID 318626) | 1 | 57060 | 40155 | 64365 | 57140 | 7640
SCAR (GeneID 34519) | 1 | 1.06e5 | 1.32e5 | 71425 | 92095 | 15290

3 consecutive reagents from above, quoted:
Gene | reagent | induced reporter light, run 1, well a | induced reporter light, run 1, well b | control promoter light, run 1, well a | control promoter light, run 1, well b | uninduced reporter light, run 1, well a
heix (GeneID 34961) | 1 | 1.59e5 | 1.90e5 | 1.51e5 | 1.48e5 | 14860
betaNACtes1 (GeneID 32360) | 1 | 60505 | 65820 | 74650 | 63225 | 9260
CG9592 (GeneID 39585) | 1 | 1.47e5 | 1.62e5 | 2.45e5 | 2.50e5 | 8175
